Source: PubChem BioAssay AID504467 (National Center for Advancing Translational Sciences (NCATS), 2011)
Out of some 330,000 compounds screened, about 7,700 (2.3%) were called active. Inconclusive means that the source gave no clear call. Such entries were picked first, then a sample of the others. The call rests on the fitted dose curve; in most records, active means well fitted inhibition curve with a large enough effect; inconclusive means small, poorly fitted or top-dose-only effect, or effect the other way; inactive means flat fitted curve, though single readings scatter. Where the call is inconclusive, the potency comes from a doubtful curve fit.

assay: qHTS screen for small molecules that inhibit ELG1-dependent DNA repair in human embryonic kidney (HEK293T) cells expressing luciferase-tagged ELG1; details: HEK293T ELG1-luciferase reporter, luminescence, 16 h, DNA damage induced by 5-fluorouridine; series mostly up to 46.1 µM; further: nearly all actives have a fitted effect of over 55% in size
Summary of the method: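 DMSO vehicle served as the neutral condition. Each well held 2,000 cells given 5-fluorouridine plus compound; after 16 hr at 37 °C/5% CO2, ONE-Glo was added and luciferase measured 30 min later.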
Potency means the concentration at half of the fitted maximal effect.

Structure (SMILES) | Potency
CCCCNC(=S)N(CCN(CC)CC)Cc1cc2cc3c(cc2[nH]c1=O)OCCO3 | inconclusive: 10.3 µM [inhibitor, partial curve, poor fit]
COC(=O)c1ccccc1NC(=O)CSc1nnc(COc2cccc(OC)c2)n1C | inconclusive: 25.9 µM [inhibitor, single point]
CCOC(=O)c1ccc(NC(=O)NC(C)C2CCCO2)cc1 (stereo not given) | inconclusive: 5.17 µM [activator, partial curve]
OC(COc1ccccc1Cl)CN1CCN(CC(O)COc2ccccc2Cl)CC1 (stereo not given) | inconclusive: 25.9 µM [inhibitor, single point]
Cc1cccc(NC(=O)COC(=O)c2ccc3nc(C)c(C)nc3c2)c1 | inconclusive: 9.2 µM [activator, single point]
CC(C)CN1C(=S)SC(C)(C)C1n1oc(=O)n(-c2ccc(Cl)cc2)c1=O (stereo not given) | inconclusive: 23.1 µM [inhibitor, single point]
COCCN(CCOC)c1nc(-c2ccc([N+](=O)[O-])cc2)nc2ccccc12 | inactive
CC(C)CNC(=O)c1cccc(NC(=O)c2ccc(Cl)c([N+](=O)[O-])c2)c1 | inconclusive: 18.4 µM [inhibitor, single point]
S=C(Nc1ccccc1)N1CCCCCCC1 | inactive
NC(=S)N/N=C/c1ccc(-n2nncc2-c2ccc(Cl)cc2)cc1 | inconclusive: 32.6 µM [inhibitor, partial curve, poor fit]
COCCN(C(=O)COC(=O)/C=C/c1nc2ccccc2s1)c1c(N)n(Cc2ccccc2)c(=O)[nH]c1=O | inconclusive: 29.1 µM [inhibitor, single point]
CS(=O)(=O)Nc1ccc(C2=NN(C(=O)c3ccccc3)C(c3cccs3)C2)cc1 (stereo not given) | inconclusive: 29.1 µM [inhibitor, single point]
O=C(O)c1ccc(N/N=C/c2cc3ccccc3nc2Cl)cc1 | inconclusive: 18.3 µM [activator, partial curve]
Cn1c(CN2CCOCC2)nnc1SCC(=O)Nc1ccc2c(c1)OCCO2 | inactive
Cc1sc(NC(=O)/C=C/C(=O)O)c(C(N)=O)c1-c1ccc(C(C)(C)C)cc1 | inactive
O=C(CN(Cc1ccco1)C(=O)Cn1nnc(-c2cccs2)n1)NCC1CCCO1 (stereo not given) | inactive
C[C@H]1COC(=O)[C@H](Cc2ccc(F)cc2)C/C=C\C[C@H](CC(=O)NCCO)C(=O)N1 | inconclusive: 18.3 µM [activator, partial curve, poor fit]
CC1CCc2cc(F)ccc2N1C(=O)c1cnc2sccn2c1=O (stereo not given) | inconclusive: 18.4 µM [activator, single point]
CC(/C=N/NC(=O)Cc1cccs1)=C\c1ccccc1 | inconclusive: 9.2 µM [activator, partial curve]
Cc1nn(C)c(C(=O)Nc2ccc(Cn3cccn3)cc2)c1[N+](=O)[O-] | inactive
CN(C)S(=O)(=O)c1ccc(C(=O)Oc2cc(=O)[nH]c3ccccc23)cc1 | inactive
CCCN1C(=O)COc2ccc(-c3n[nH]c(=O)c4ccccc34)cc21 | inactive
COc1ccccc1Nc1ncccc1C(=O)O | inactive
C[N+](C)(CCOc1ccccc1)Cc1ccccc1 (tested in a mixture with another compound) | inactive

Structure (SMILES) | Potency
CC(O)CNc1nc2c(c(=O)n(Cc3ccc(Cl)cc3)c(=O)n2C)n1C (stereo not given) | inconclusive: 23.1 µM [inhibitor, single point]
CCOC(=O)C1=C(CC)Nc2ccccc2N=C1NC(=O)c1cc(S(=O)(=O)N(C)C)ccc1Cl | inconclusive: 16.4 µM [inhibitor, partial curve]
Cc1ccc(S(=O)(=O)N2CN(CC3CCCO3)c3nc4ccccc4nc32)cc1 (stereo not given) | inactive
Cc1[nH]n(C)c(=O)c1C(=O)c1c(-c2c(Cl)cccc2Cl)noc1C | inconclusive: 10.3 µM [activator, partial curve]
NC(=O)CSc1nnc(-c2cc3ccccc3o2)n1Cc1ccccc1 | inactive
O=C(NCCCN1CCOCC1)c1cn(-c2ccccc2)nc1-c1ccc(F)cc1 | inactive
NS(=O)(=O)c1cccc(NC(=O)c2cc(-c3cccs3)nc3ccccc23)c1 | inconclusive: 29.1 µM [inhibitor, single point]
CCc1ccc(NC(=O)Nc2ccc3c(c2)CCC3)cc1 | inconclusive: 7.3 µM [activator, partial curve]
COc1ccc(C(=O)COC(=O)Cn2cnc3ccccc3c2=O)c(OC)c1 | inactive
Cc1cc(=O)n2[nH]c(-c3cccnc3)nc2n1 | inactive
CC(CC(=O)N1CCN(c2cccc(Cl)c2)CC1)S(=O)(=O)c1ccc2c(c1)NC(=O)CO2 (stereo not given) | inconclusive: 16.4 µM [inhibitor, single point]
COc1ccc(S(=O)(=O)Nc2cc(C(=O)NCCCN3CCOCC3)ccc2N2CCOCC2)cc1 | inconclusive: 18.3 µM [activator, single point]
Cn1cc(-c2cc(C(=O)O)on2)cn1 | inactive
COc1ccc(C(=O)Nc2cc(C)c(NC(=O)c3ccccn3)cn2)cc1 | inconclusive: 10.3 µM [activator, partial curve]
O=C(COc1ccccc1-c1ccccc1)N/N=C/c1ccccn1 | inconclusive: 23.1 µM [inhibitor, partial curve]
CCOc1ccc2nc(NC(=O)C(CC)Sc3nc(C)cc(=O)[nH]3)sc2c1 (stereo not given) | inconclusive: 5.8 µM [activator, partial curve]
COc1cc(C(=O)NCCNC(=O)c2cnccn2)cc(OC)c1OC | inconclusive: 23.1 µM [activator, partial curve, poor fit]
O=C(NCC(O)c1ccccc1)c1ccc(Cl)c(S(=O)(=O)N2CCCCC2)c1 (stereo not given) | inconclusive: 1.3 µM [inhibitor, full curve]
Fc1ccc(C(c2nnnn2C2CCCCC2)N2CCCC2)cc1 (stereo not given) | inactive
CCOC(=O)c1[nH]c2ccc(C)cc2c1N=CN(CC)CC | inactive
CCCc1ccc(-c2cc(NC(=O)CSc3nnc(N)s3)n(-c3ccccc3)n2)cc1 | inconclusive: 2.59 µM [activator, partial curve]
COc1ccc(N=C2C(=Nc3ccc(OC)cc3)N(c3ccccc3)C(=S)N2C(=O)c2ccc(Cl)cc2)cc1 | inconclusive: 18.4 µM [activator, single point]
CCOC(=O)c1c(C)nc2sc3c(=O)n(-c4ccc(OC)cc4)nnc3c2c1-c1ccc(OC)cc1 | inconclusive: 20.6 µM [inhibitor, single point]
COc1ccc(NC(=O)CSc2nnc(C)n2C2CC2)cc1S(=O)(=O)N1CCOCC1 | inactive

Exported in markdown: entries from further up

| Structure (SMILES) | Potency |
| --- | --- |
| CCOC(=O)c1ccc(NC(=O)NC(C)C2CCCO2)cc1 (stereo not given) | inconclusive: 5.17 µM [activator, partial curve] |
| Cc1cccc(NC(=O)COC(=O)c2ccc3nc(C)c(C)nc3c2)c1 | inconclusive: 9.2 µM [activator, single point] |
| COCCN(CCOC)c1nc(-c2ccc([N+](=O)[O-])cc2)nc2ccccc12 | inactive |
| CCOc1ccc2nc(NC(=O)C(CC)Sc3nc(C)cc(=O)[nH]3)sc2c1 (stereo not given) | inconclusive: 5.8 µM [activator, partial curve] |

(continued)

Structure (SMILES) | Potency
CCCOc1ccc(C(=O)ON=C2CCN(C)CC2)cc1 | inactive
CC(=O)OC[C@H]1O[C@@H](Sc2cccc3cccnc23)[C@H](OC(C)=O)[C@@H](OC(C)=O)[C@@H]1OC(C)=O | inconclusive: 13 µM [inhibitor, partial curve]
Cc1ccc(S(=O)(=O)N2CCN(C(=O)c3ccco3)CC2)c(C)c1 | inconclusive: 23.1 µM [inhibitor, partial curve, poor fit]
CCOCCCn1c(SCC(=O)NCc2ccco2)nc2c(sc3ccccc32)c1=O | active: 16.4 µM
COc1cc(OC)cc(C(=O)N[C@H](C(=O)OCC(=O)Nc2ccc(C)cc2C)C(C)C)c1 | inconclusive: 23.1 µM [inhibitor, partial curve]
O=C(c1ccc(Cl)cc1)N1CCOc2ccccc21 | inactive
COc1ccc(NC(=O)CN2CCc3ccccc3C2)c([N+](=O)[O-])c1 | inconclusive: 20 µM [inhibitor, single point]
CC(C)(C)NC(=O)COc1ccc(-c2ccccc2)cc1 | inconclusive: 7.31 µM [activator, partial curve]
CC(=O)/C(=N/Nc1cccc(Cl)c1)Sc1nnc(C(O)c2ccccc2)n1-c1ccccc1 (stereo not given) | inactive
CC(C)(C)c1ccc(/C=C/C(=O)Nc2cccnc2)cc1 | inconclusive: 4.11 µM [activator, partial curve]
CCOC(=O)CSc1nc(C)c2cc(C)c(C)cc2n1 | inactive
Cc1cccc(N2CC(C(=O)OCC(=O)c3c(N)n(CC(C)C)c(=O)n(C)c3=O)CC2=O)c1C (stereo not given) | inactive
NC(=O)CCC(NC(=O)c1ccc(Cl)cc1)C(=O)O (stereo not given) | inactive
Cn1c(=O)cc(OCCCC(=O)N2CCN(Cc3ccc4c(c3)OCO4)CC2)c2ccccc21 | inconclusive: 25.9 µM [activator, single point]
Cc1c(CCOC(=O)C23CC4(C)CC(C)(CC(C)(C4)C2)C3)sc[n+]1CC(=O)c1ccccc1 | inactive
Cc1c(NC(=O)c2cc3ccccc3o2)c(=O)n(-c2ccccc2)n1C | inactive
CC1CCCCN1C(=O)COC(=O)c1cc(Cl)c2c(c1)OCO2 (stereo not given) | inconclusive: 20.6 µM [activator, partial curve]
O=C(Nc1ccccc1Cl)Nn1cnnc1 | inactive
COc1ccc(C(=O)CSc2nnc3n2CCCN3C(=O)Nc2ccccc2)cc1 | inactive
CC(C)N(Cc1ccccc1)C(=O)C1CCN(c2ncnc3c2nc2n3CCCCC2)CC1 | inconclusive: 16.4 µM [inhibitor, partial curve]
Cc1ccc(S(=O)(=O)Nc2cc(Cl)c(O)c3ncccc23)cc1 | inconclusive: 4.61 µM [inhibitor, partial curve, poor fit]
CCC1(C)Cc2c(sc3nc(SCC(=O)c4ccccc4)[nH]c(=O)c23)CO1 (stereo not given) | inconclusive: 16.4 µM [inhibitor, single point]
